These results are taken from PubChem BioAssay AID248 (DTP/NCI, 2004).

The list shows only some results of the screen, not a fair sample: it is rich in T/C values a quarter to a half above the control, in often repeated tests (any T/C) and in doses without a T/C. Further doses and runs are listed elsewhere. T/C is the treated group as % of the vehicle group. Some doses have a count of surviving animals in place of a T/C: the source holds a T/C of zero for them, seemingly a mark for toxic or unscored doses. Some survivor counts are full or nearly so, which does not show that the dose was tolerated: the source hardly ever lists a survival T/C far under the control, and the zero likely stands for such cases as well. Survivors were counted at the toxicity check, usually on the fifth day, unless a day is given; later deaths do not show. Schedules are NCI's codes, read here as Q, the interval in days (D) or hours (H), X, the number of doses.

This assay has as its system L1210 leukemia ip in BDF1 mice, survival T/C. Briefly: NCI In Vivo Anticancer Drug Screen. Data for tumor model L1210 Leukemia (intraperitoneal) in B6D2F1 (BDF1) mice. Particulars: T/C endpoint: mean survival time, schedule: Q01DX009 (ip), higher T/C = longer survival.

Regarding `COc1ccc(CN(CCO)S(C)(=O)=O)cc1`, the survivor count (dose: 100.0 mg/kg/injection, vehicle: saline) is given as 6 of 6.

For the compound `Clc1ccc(Cl)c(-c2csc(-c3ccncc3)n2)c1`, the survivor count (dose: 200.0 mg/kg/injection, vehicle: Klucel (hydroxypropylcellulose) (HPC)) is recorded as 1 of 6 and the survivor count (dose: 400.0 mg/kg/injection, vehicle: Klucel (hydroxypropylcellulose) (HPC)) is listed as 0 of 6.
